The source of these data is PubChem BioAssay AID2685 (National Center for Advancing Translational Sciences (NCATS), 2010).

Structures are written as SMILES. The list shows a part of the results. Shown are side measurements of this screen, not its main read-out; they come without a call. The list favours compounds with an active or inconclusive main result. The note in brackets gives the kind of curve behind each potency; many fits are weak.

A short description of this assay: qHTS Assay for Lipid Storage Modulators in Drosophila S3 Cells.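 For cell number change: cells counted by Cell Tracker Red CMTPX staining in the red channel.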 The following applies: BODIPY lipid droplet fluorescence, 18-24 h; for cell number change: measured here: cell count max response, cells fed with added oleic acid. Put shortly: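 Drosophila S3 cells got compounds at several concentrations plus oleic acid (400 uM solution). Laser-scanning cytometry with 488 nm excitation read lipid droplets at 500-530 nm and cells at 575-640 nm. Percent activity was relative to 20 uM Triacsin C.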

Setting [1] is: measured here: lipid fluorescence (Fed channel) AC50, cells fed with added oleic acid.
Setting [2] is: measured here: cell number channel AC50, cells fed with added oleic acid.

For the compound `O=C(Nc1ccnn1C1CCN(CC2CC=CCC2)CC1)c1ccccc1Cl` (stereo not drawn), the cell number change was -1.83%. The AC50 under setting [1] was 29.1 µM [rising, single point]. As for `O=C(O)CSc1c[nH]c2ccccc12`, the cell number change came to 25.8%. The AC50 under setting [1] is 0.0326 µM [falling, full curve, poor fit]. For the compound `CN(CCCS(=O)(=O)[O-])c1ccc(/C=C/c2ccc3ccccc3[n+]2C)cc1`, the cell number change came to 16.9%. Further, under setting [1], the AC50 was 8.2 µM [rising, partial curve].

As to `N#CC1=C(N)C2=CCCC[C@H]2[C@H](c2cccc(F)c2)C1(C#N)C#N`, the cell number change is -21.7%. The AC50 under setting [1] was 23.1 µM [falling, single point].

Regarding `O=C(COc1ccccc1N1C(=O)c2ccccc2C1=O)c1ccc(Cl)cc1`, the cell number change worked out at 92.9%. Further, the AC50 under setting [2] is 23.1 µM [rising, single point]. Consider `COc1ccc(NC(=O)/C(Cl)=C(/Cl)S(=O)(=O)Cc2ccccc2)cn1`, for which the cell number change was -84.6%. Also, the AC50 under setting [2] is 29.1 µM [falling, single point]. Besides, under setting [1], the AC50 is 0.651 µM [falling, partial curve, poor fit]. On to `COc1cc(OC)cc(C(=O)NCC2CCCN(C(=O)c3csc(C)n3)C2)c1` (stereo not drawn), for which the cell number change was found to be 14.4%. Also, under setting [1], the AC50 is 29.1 µM [falling, single point]. Turning to `CCN1CCN(c2ccc(S(=O)(=O)N3CCOCC3)cc2NC(=O)/C=C/c2cccc(OC)c2OC)CC1`, the cell number change came to 60.6%. Under setting [2], the AC50 was 14.6 µM [rising, partial curve].

For `CCn1c(CNC(=O)c2cccc(C)c2)nnc1SCC(=O)NC1CCCC1`, the cell number change is -5.56%. Also, the concentration at half-maximal activity (AC50) under setting [1] was 11.6 µM [falling, single point]. As to `O=C(c1cn(Cc2ccccc2)nc1-c1cccnc1)N1CCN(Cc2ccccc2)CC1`, the cell number change came to 3.63%. Besides, the half-maximal activity concentration (AC50) under setting [1] was 0.116 µM [falling, full curve, poor fit]. `COc1ccc(N(CC(=O)NC2CCCCC2)C(=O)c2ccc(C)s2)cc1OC`: the cell number change was 10%. In the case of `COc1ccc(Cl)cc1NC(=O)CSc1nnc(C2CC2)n1N`, the AC50 under setting [1] is 0.58 µM [falling, partial curve, poor fit]. Consider `c1ccc(-c2ccccc2-n2cnnn2)cc1`, for which the AC50 runs as follows: under setting [2], 5.8 µM [falling, single point]; under setting [1], 5.8 µM [falling, partial curve]. On to `CSCC[C@H](NC(=O)Nc1ccc(C)cc1)C(=O)O`, for which the cell number change was -7.2%.

Consider `CC(C)C[C@H](NS(=O)(=O)c1ccc(Br)cc1)C(=O)O`, for which the cell number change is -53.9%. In addition, the AC50 under setting [2] is 14.6 µM [falling, partial curve]. Besides, the AC50 under setting [1] was 29.1 µM [falling, single point]. As for `O=C(Cn1nc([N+](=O)[O-])nc1Br)NC1CCCCC1`, the cell number change was -23.8%. The AC50 under setting [2] was 0.164 µM [falling, full curve, poor fit]. `O=C(O)CC/C(=N\Nc1ccc(Cl)cc1)c1cccs1`: the cell number change is -3.6%. Under setting [1], the half-maximal activity concentration (AC50) was 32.6 µM [falling, single point].

As for `CCOP(=O)(c1ccc(N(C)C)cc1)C(O)c1ccc(OC)cc1` (stereo not drawn), under setting [1], the AC50 is 6.51 µM [falling, single point]. Take `CCOC(=O)N1CCN(C(=O)CNS(=O)(=O)c2cccs2)CC1`: the cell number change was -19.2%. For the compound `COC(=O)c1cc(NC(=O)c2cccs2)ccc1N1CCOCC1`, the cell number change was -33.8%. Moreover, the concentration at half-maximal activity (AC50) under setting [2] is 23.1 µM [falling, single point]. Moreover, the AC50 under setting [1] is 16.4 µM [falling, single point]. In the case of `O=C(NCc1ccccc1CN1CCCC1)c1ccc(OCc2cscn2)cc1`, the cell number change was -4.91%. As for `CCc1noc(C)c1C(=O)Nc1nc2c(C)cc(C)cc2s1`, the cell number change came out at 34%. For the same compound, the AC50 under setting [2] is 3.26 µM [rising, full curve]. The AC50 under setting [1] is 3.66 µM [rising, full curve]. For the compound `COc1ccc(OCC(O)Cn2c(N3CCCCC3)nc3c2c(=O)[nH]c(=O)n3C)cc1` (stereo not drawn), the cell number change is -19.1%. The AC50 under setting [1] is 29.1 µM [falling, single point]. In the case of `Fc1cc2nc(-c3ccncc3)[nH]c2cc1F`, the cell number change was -7.67%. For the compound `O=S(=O)(c1ccc(Cl)cc1)n1cnc2ccccc21`, the cell number change worked out at 5.28%. For the same compound, the AC50 under setting [1] was 29.1 µM [rising, single point]. With `CCC(=O)N1N=C(c2ccccc2)CC1c1ccccc1` (stereo not drawn), the cell number change is -3.94%. The AC50 under setting [1] is 6.51 µM [falling, single point].

Turning to `COc1cc(/C=N/NC(N)=O)ccc1OC(=O)c1cccs1`, the cell number change stood at 18.8%. Same read-out and setting: the same measure for `Cc1noc(C)c1COc1ccc(C(=O)N2CCN(c3ccccn3)CC2)cc1`: 27.7%. Turning to `Cc1ccc(NC(=O)CCn2c(=O)c3cccn3c3ccccc32)cc1C`, the cell number change is -31%. Under setting [1], the AC50 is 29.1 µM [falling, partial curve, poor fit]. For `CCn1nc(NC(=O)c2cccnc2)c2cc3ccccc3nc21`, the AC50 under setting [2] was 0.651 µM [rising, full curve, poor fit] and the AC50 under setting [1] is 5.8 µM [rising, partial curve, poor fit]. For `CCOC(=O)c1c(C)[nH]c(C2=NNC(=NC3CC3)SC2)c1C`, the AC50 under setting [2] is 6.51 µM [rising, partial curve, poor fit].

Consider `Cc1cccc(OCc2nnc(SCC(=O)Nc3sc(C)c(C)c3C#N)n2C)c1`, for which the cell number change was -3.38%. Under setting [1], the AC50 was 6.51 µM [rising, single point]. `COc1ccccc1C(=O)Nc1ccc(S(=O)(=O)NC2=NCCCCC2)cc1`: the cell number change turned out to be 31.2%. As for `O=C(OC1CCOC1=O)c1ccc(N2CCCC2)c([N+](=O)[O-])c1` (stereo not drawn), the cell number change was -34.6%. In addition, the AC50 under setting [2] is 32.6 µM [falling, single point]. With `O=C(Nc1cc(C(F)(F)F)ccc1N1CCCC1)c1cccnc1`, the cell number change is -35%. Further, under setting [2], the AC50 is 1.46 µM [falling, full curve, poor fit]. In addition, the AC50 under setting [1] was 0.00461 µM [falling, full curve, poor fit].

Take `COc1ccc2c(c1)C(SCC(=O)NCc1ccccc1)CC(C)(C)O2` (stereo not drawn): the cell number change is -20.1%. For the same compound, under setting [1], the AC50 was 20.6 µM [falling, partial curve, poor fit].

Take `COc1cc(C)ccc1OCCOCCOc1ccc([N+](=O)[O-])cc1`: the AC50 is, setting by setting: under setting [2], 4.11 µM [rising, partial curve]; under setting [1], 18.4 µM [rising, partial curve, poor fit]. On to `Cc1ccc(NC(=O)c2nc[nH]c2C(=O)NCC(=O)OC(C)(C)C)cc1`, for which the cell number change was determined as 0.637%. Also, the AC50 under setting [1] was 0.92 µM [rising, partial curve, poor fit]. As to `NC(=O)c1ccc(NC(=O)COC(=O)CCCN2C(=O)c3cccc4cccc(c34)C2=O)cc1`, the cell number change is 9.96%. In addition, the AC50 under setting [1] is 25.9 µM [rising, single point]. `Cc1cccc2sc(N(CCCN(C)C)C(=O)c3ccc(S(=O)(=O)N4CCc5ccccc5C4)cc3)nc12`: the cell number change was -47.2%. Also, the AC50 under setting [2] is 23.1 µM [falling, single point]. Moreover, the AC50 under setting [1] was 29.1 µM [falling, single point]. `CC1CCc2c(sc(NC(=O)c3ccc(Cn4cc([N+](=O)[O-])cn4)o3)c2C#N)C1` (stereo not drawn): the cell number change is -11.1%. Under setting [1], the AC50 was 20.6 µM [falling, single point]. On to `COc1ccc(NC(=O)C(=O)NCCN2CCN(C(=O)c3ccc(C)cc3)CC2)cc1`, for which the cell number change is -15.2%. The AC50 under setting [1] is 29.1 µM [rising, single point]. For `CN(C)c1ccc(-c2cccc(C3CC=CC4C3C(=O)N(Cc3ccccc3)C4c3ccc(C(F)(F)F)cc3)c2)cc1` (stereo not drawn), the cell number change worked out at 30.6%. For the same compound, the AC50 under setting [2] was 13 µM [rising, single point]. With `O=C(CSc1ccc(F)cc1)Nc1ccc(N2CCOCC2)cc1`, the cell number change is -14.9%. Under setting [1], the AC50 is 29.1 µM [rising, single point].

Turning to `COCCNC(=O)C(c1ccc(C)cc1)N(C(=O)C(=O)NC1CCCC1)c1ccc2c(c1)OCCO2` (stereo not drawn), the cell number change was -3.46%. `Cc1ccccc1-c1nnn(CC(=O)NCc2ccc3c(c2)OCO3)n1`: the cell number change is -40.4%. Also, the concentration at half-maximal activity (AC50) under setting [2] was 0.651 µM [falling, full curve, poor fit]. For the compound `O=C(CSc1nc2c(c(=O)n1-c1ccc(Cl)cc1)SCC2)NCc1ccco1`, the cell number change turned out to be 2.4%. In addition, the half-maximal activity concentration (AC50) under setting [1] is 6.51 µM [falling, partial curve, poor fit].

As to `CCCCN(C(=O)CCC(=O)Nc1cc(C)on1)C(C(=O)NC(C)(C)C)c1ccccc1Cl` (stereo not drawn), the cell number change is 4.78%. With `COC(=O)c1ccc(N2CCC(C)CC2)c(N)c1`, the cell number change was determined as 45.2%. Besides, the AC50 under setting [2] was 7.31 µM [rising, partial curve, poor fit]. Also, the AC50 under setting [1] was 2.91 µM [rising, partial curve]. Turning to `Cc1cc(Cl)c2oc(C(=O)N(CCO)Cc3ccccc3)c(C)c2c1`, the cell number change was -11%. For the same compound, the AC50 under setting [1] is 6.51 µM [rising, single point]. For `Cc1ccc(C)c(S(=O)(=O)N2C(=S)NC(=O)C2C(C)C)c1` (stereo not drawn), the cell number change was -5.46%. Also, the concentration at half-maximal activity (AC50) under setting [2] is 0.82 µM [falling, full curve, poor fit]. For the compound `COc1cc(N)c(Cl)cc1C(=O)OCC(=O)N(C)C1CCCCC1`, the cell number change was 1.18%. In addition, the AC50 under setting [1] is 0.259 µM [rising, partial curve, poor fit]. For `O=c1cc(N2CCC3(CC2)OCCO3)[nH]c(=O)n1-c1ccc(Cl)cc1`, the cell number change was -14.7%. Same read-out and setting: the same measure for `Cc1cc(C)n(-c2nc3ccccc3nc2N2CCCCCC2)n1`: -17.3%. `Cc1ccc(-n2cc(C(=O)c3ccc(F)cc3)nn2)cc1Cl`: the cell number change was -83.1%. In addition, the AC50 under setting [1] was 0.092 µM [rising, full curve, poor fit].

For the compound `CC(=O)Nc1ccccc1NC(=O)C/C(C)=N/NC(=O)Cc1cccc2ccccc12`, the cell number change was 8.02%. The AC50 under setting [1] is 29.1 µM [falling, single point]. Take `CCC(c1nc2ccccc2c(=O)n1-c1nc2ccccc2s1)N1C(=O)c2ccccc2C1=O` (stereo not drawn): the cell number change worked out at 10.8%. For the same compound, the AC50 under setting [1] is 2.06 µM [rising, partial curve, poor fit]. Take `CC(=O)Nc1ccc(OS(=O)(=O)c2c(C)cc(C)cc2C)cc1`: the cell number change is -0.088%. The AC50 under setting [2] was 4.11 µM [falling, single point]. Moreover, the half-maximal activity concentration (AC50) under setting [1] is 6.51 µM [falling, single point]. With `COc1ccc(S(=O)(=O)Nc2ccccc2C(=O)Nc2nc(-c3ccc(F)cc3)cs2)cc1OC`, the cell number change is -9.74%.

Regarding `O=C(Cc1ccc(F)cc1)Nc1ccc(F)c([N+](=O)[O-])c1`, the cell number change was -21.3%. For the same compound, under setting [2], the AC50 is 0.82 µM [rising, full curve]. Moreover, the AC50 under setting [1] is 0.651 µM [rising, full curve].
